Experimental data published in the M2OR odorant receptor database.
Substitutions are numbered along the chain they refer to. This is a selection; strong and weak results do not stand in their true shares. Calls are pooled over several reports, among them a noisy single-well screen. The list shows a part of the results. The list shows a part of the results.

Chains of the proteins cited; added tags and fusions are not shown. Chains listed by the source or under a name are the forms on record and can include a tag or linker.
OR2W1, as listed by the source: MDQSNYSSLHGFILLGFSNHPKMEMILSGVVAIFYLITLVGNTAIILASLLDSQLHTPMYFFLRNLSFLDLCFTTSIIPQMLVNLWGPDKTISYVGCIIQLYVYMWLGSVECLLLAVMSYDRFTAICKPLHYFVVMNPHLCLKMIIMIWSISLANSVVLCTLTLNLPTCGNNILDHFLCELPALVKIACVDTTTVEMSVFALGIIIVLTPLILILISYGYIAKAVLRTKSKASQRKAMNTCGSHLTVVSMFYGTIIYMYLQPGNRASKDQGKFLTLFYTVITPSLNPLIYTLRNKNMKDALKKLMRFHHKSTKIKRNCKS

Experiments:
Details in all cases: stereoisomer not certain
OR2W1 (Homo sapiens) = target: T1, OR2W1 (Homo sapiens) (UniProt Q9Y3N9)
T1 sequence (whole entry): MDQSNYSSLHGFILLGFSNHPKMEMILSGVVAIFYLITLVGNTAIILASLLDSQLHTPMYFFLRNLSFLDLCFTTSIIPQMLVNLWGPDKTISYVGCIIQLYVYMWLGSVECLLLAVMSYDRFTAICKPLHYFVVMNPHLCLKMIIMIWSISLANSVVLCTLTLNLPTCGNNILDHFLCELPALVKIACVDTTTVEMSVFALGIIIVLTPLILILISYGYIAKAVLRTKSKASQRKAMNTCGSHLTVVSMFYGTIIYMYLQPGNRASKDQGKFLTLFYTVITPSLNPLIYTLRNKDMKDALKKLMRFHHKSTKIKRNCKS
Procedure, shortened: (§1)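 Values were gathered from published papers (main text and supplementary material), with extra details requested from the original authors when needed, and checked for typos and inconsistencies. Each receptor–molecule pair is called responsive (active) if the original authors judged the measured signal statistically different from baseline, and non-responsive (inactive) otherwise. Assay methods varied by source, often transient mammalian cell-line luciferase assays. Recorded details include cell line, G-protein, co-transfected protein and tags.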

OR2T5 = system: T2, OR2T5
T2 sequence (whole entry): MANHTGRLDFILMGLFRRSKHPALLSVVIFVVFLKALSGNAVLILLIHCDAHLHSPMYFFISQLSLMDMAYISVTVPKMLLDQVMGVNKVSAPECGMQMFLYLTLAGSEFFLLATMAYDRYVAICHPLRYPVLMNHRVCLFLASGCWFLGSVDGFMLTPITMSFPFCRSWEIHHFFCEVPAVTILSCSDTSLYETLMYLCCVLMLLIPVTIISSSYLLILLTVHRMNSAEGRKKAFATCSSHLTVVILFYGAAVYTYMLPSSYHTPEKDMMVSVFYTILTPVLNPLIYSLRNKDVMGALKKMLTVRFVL
Procedure, shortened: as §1

OR2T6 = system: T3, OR2T6
T3 sequence (whole entry): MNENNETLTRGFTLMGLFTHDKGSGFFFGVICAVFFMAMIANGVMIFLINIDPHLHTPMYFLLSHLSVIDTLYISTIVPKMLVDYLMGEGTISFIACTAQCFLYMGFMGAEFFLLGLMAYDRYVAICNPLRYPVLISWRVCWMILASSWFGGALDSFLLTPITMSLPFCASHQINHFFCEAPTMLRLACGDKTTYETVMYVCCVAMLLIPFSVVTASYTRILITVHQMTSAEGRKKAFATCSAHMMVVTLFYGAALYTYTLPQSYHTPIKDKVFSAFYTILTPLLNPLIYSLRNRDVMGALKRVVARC
Procedure, shortened: as §1

OR2T8 = system: T4, OR2T8
T4 sequence (whole entry): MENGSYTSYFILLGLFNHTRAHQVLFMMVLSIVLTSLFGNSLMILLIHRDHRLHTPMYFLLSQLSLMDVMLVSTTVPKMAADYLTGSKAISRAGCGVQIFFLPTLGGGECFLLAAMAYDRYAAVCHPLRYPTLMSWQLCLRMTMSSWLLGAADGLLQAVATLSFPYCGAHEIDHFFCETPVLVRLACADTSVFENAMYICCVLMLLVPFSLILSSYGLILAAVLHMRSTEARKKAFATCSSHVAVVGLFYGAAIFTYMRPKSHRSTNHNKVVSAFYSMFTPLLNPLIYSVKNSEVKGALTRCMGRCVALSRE
Procedure, shortened: as §1

OR2V1 = system: T5, OR2V1
T5 sequence (whole entry): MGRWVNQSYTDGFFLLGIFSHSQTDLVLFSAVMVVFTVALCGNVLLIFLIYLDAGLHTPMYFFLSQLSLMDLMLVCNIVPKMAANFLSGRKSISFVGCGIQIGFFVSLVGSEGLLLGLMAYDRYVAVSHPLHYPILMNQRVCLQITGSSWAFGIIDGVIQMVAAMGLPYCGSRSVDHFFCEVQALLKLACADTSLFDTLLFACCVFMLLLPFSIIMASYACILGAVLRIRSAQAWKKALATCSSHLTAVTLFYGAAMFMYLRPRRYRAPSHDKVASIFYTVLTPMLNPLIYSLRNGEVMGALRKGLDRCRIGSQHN
Procedure, shortened: as §1

OR2V2 = system: T6, OR2V2
T6 sequence (whole entry): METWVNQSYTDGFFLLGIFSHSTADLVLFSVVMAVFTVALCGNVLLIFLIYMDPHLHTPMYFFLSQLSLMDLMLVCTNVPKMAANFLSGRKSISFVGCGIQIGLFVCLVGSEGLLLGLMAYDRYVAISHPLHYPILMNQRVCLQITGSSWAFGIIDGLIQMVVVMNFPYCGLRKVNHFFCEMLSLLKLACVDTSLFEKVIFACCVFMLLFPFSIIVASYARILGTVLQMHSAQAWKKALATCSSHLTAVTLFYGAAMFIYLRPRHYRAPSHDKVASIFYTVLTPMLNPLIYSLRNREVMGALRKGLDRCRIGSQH
Procedure, shortened: as §1

OR2W1 [1] = system: T7, OR2W1
T7 sequence (whole entry): T1 sequence (whole entry) with D296N
Procedure, shortened: as §1

OR2W3 = system: T8, OR2W3
T8 sequence (whole entry): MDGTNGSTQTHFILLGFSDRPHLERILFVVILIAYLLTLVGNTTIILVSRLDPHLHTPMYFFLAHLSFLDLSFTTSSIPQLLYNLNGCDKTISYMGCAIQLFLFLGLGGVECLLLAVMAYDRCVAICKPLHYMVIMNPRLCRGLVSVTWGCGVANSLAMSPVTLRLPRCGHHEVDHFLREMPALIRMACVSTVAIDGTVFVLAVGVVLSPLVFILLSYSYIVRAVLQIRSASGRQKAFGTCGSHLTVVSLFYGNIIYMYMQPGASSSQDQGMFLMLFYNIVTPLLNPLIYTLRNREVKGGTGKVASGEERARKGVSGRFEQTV
Procedure, shortened: as §1

OR2W5P (Homo sapiens) = target: T9, OR2W5P (Homo sapiens) (UniProt A6NFC9)
T9 sequence (whole entry): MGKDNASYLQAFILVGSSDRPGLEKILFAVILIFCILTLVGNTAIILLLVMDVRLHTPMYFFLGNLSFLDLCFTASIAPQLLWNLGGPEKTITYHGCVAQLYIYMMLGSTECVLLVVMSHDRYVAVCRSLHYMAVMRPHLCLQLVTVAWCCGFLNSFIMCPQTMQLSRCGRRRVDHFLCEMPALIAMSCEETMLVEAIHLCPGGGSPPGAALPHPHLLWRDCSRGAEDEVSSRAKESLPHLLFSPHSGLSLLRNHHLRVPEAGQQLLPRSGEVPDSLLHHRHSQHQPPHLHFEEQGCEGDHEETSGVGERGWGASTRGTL
Procedure, shortened: as §1

OR2Y1 = system: T10, OR2Y1
T10 sequence (whole entry): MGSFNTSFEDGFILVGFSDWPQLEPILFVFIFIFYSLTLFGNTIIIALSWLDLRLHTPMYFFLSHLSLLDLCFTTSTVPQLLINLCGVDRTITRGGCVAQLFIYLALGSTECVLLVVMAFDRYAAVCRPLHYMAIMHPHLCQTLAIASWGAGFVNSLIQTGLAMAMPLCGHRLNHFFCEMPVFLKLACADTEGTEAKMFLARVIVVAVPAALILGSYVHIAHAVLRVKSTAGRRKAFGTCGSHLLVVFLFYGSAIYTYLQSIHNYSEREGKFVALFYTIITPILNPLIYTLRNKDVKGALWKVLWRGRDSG
Procedure, shortened: as §1

OR2Z1 (Homo sapiens) = target: T11, OR2Z1 (Homo sapiens) (UniProt Q8NG97)
T11 sequence (whole entry): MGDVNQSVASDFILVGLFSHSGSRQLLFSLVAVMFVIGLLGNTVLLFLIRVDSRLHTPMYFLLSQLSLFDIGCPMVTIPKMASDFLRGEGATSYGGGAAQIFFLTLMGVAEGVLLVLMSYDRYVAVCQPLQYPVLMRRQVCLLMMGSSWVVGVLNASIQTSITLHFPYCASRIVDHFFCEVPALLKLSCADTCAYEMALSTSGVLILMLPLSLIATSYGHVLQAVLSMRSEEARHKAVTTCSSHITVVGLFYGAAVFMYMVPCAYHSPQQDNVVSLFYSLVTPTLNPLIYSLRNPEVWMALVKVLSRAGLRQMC
Procedure, shortened: as §1

OR3A1 (Homo sapiens) = target: T12, OR3A1 (Homo sapiens) (UniProt P47881)
T12 sequence (whole entry): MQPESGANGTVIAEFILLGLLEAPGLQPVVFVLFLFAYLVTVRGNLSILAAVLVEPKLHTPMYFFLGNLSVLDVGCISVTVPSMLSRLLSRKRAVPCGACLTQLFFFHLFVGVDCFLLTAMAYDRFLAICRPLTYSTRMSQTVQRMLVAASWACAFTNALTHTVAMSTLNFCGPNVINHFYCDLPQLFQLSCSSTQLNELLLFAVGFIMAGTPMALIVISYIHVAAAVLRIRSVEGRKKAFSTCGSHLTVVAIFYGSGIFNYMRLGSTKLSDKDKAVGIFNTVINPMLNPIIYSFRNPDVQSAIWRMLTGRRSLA
Procedure, shortened: as §1

OR3A2 (Homo sapiens) = target: T13, OR3A2 (Homo sapiens) (UniProt P47893)
T13 sequence (whole entry): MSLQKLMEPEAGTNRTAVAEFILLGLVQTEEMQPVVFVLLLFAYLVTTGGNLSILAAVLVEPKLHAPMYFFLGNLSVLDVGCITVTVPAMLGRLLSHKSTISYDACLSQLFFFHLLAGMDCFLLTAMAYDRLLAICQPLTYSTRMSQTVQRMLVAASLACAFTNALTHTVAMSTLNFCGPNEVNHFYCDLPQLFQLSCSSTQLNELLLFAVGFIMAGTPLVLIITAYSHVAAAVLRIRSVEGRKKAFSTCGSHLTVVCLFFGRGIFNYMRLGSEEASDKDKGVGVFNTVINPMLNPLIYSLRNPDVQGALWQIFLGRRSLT
Procedure, shortened: as §1

OR3A3 = system: T14, OR3A3
T14 sequence (whole entry): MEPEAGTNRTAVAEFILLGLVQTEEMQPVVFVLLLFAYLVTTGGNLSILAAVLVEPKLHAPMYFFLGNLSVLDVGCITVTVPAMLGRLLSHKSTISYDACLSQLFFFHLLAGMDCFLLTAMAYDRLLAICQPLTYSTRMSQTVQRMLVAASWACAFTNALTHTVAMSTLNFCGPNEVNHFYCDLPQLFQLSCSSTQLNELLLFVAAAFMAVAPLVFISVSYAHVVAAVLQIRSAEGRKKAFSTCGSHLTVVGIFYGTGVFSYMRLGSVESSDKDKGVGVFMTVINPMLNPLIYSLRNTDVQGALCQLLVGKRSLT
Procedure, shortened: as §1

OR3A4 = system: T15, OR3A4
T15 sequence (whole entry): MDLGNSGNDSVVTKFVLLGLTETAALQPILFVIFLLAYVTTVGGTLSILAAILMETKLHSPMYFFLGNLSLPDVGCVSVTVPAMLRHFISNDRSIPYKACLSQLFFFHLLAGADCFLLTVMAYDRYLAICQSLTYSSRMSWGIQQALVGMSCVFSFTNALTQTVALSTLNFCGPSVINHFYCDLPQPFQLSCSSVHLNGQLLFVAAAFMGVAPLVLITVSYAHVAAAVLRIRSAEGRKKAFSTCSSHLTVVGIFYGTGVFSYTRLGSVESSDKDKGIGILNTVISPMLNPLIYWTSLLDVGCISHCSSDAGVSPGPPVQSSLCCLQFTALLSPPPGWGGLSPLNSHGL
Procedure, shortened: as §1

OR4A16 (Homo sapiens) = target: T16, OR4A16 (Homo sapiens) (UniProt Q8NH70)
T16 sequence (whole entry): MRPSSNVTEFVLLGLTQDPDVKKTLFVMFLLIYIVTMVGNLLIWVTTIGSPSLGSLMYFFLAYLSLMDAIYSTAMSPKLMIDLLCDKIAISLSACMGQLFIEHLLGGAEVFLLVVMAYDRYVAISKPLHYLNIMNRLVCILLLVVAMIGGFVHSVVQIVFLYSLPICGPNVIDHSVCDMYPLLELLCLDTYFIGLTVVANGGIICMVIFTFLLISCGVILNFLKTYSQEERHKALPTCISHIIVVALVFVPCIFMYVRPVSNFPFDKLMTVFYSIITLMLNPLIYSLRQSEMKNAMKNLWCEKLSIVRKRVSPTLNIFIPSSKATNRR
Procedure, shortened: as §1

OR4A4P (Homo sapiens) = target: T17, OR4A4P (Homo sapiens) (UniProt Q8NGN8)
T17 sequence (whole entry): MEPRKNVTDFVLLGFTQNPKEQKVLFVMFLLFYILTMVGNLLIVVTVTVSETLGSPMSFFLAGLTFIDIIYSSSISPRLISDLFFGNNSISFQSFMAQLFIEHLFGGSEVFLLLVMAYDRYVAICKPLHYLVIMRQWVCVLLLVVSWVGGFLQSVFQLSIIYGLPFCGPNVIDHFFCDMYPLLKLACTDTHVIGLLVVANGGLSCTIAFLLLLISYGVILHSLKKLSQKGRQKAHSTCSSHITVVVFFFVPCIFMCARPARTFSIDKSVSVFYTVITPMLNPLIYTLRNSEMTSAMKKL
Procedure, shortened: as §1

OR4A5 (Homo sapiens) = target: T18, OR4A5 (Homo sapiens) (UniProt Q8NH83)
T18 sequence (whole entry): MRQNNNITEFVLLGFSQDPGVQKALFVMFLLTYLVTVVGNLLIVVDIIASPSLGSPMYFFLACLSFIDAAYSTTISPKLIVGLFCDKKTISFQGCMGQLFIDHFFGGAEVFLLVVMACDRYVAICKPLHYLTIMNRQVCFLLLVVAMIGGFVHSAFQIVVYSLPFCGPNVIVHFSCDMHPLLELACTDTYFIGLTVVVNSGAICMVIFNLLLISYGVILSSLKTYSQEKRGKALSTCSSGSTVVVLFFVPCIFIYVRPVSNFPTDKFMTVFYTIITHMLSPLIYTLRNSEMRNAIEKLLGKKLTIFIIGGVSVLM
Procedure, shortened: as §1

OR4A5 = system: T19, OR4A5
T19 sequence (whole entry): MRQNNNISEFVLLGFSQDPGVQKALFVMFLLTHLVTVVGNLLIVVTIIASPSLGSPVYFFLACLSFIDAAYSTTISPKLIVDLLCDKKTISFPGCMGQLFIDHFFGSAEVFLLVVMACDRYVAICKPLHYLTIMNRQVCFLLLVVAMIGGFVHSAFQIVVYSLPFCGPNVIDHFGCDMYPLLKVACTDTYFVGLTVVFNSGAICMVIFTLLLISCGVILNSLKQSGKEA
Procedure, shortened: as §1

OR2W1 [2] = system: OR2W1; remark: listed apart in the source
Procedure, shortened: as §1

Measured: odorant receptor agonist call

CCOc1cc(C=O)ccc1O
inactive: OR2W1 (Homo sapiens)

CCC(C)=O
active: OR2W1 (Homo sapiens)
not listed: OR2W1 [2]
inactive: all other assays above

CCCCOC(C)=O
active: OR2W1 (Homo sapiens) | OR2W1 [1] | OR2W1 [2]
inactive: all other assays above

CS
not listed: OR2W1 [2]
inactive: all other assays above
